Measurements reported in PubChem BioAssay AID1259424 (University of Nebraska Medical Center, 2018)

- Assay: 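Find knockdowns that reproduce the expression shifts seen after KSR1 loss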 (primary screen)
- System: human HCT116 colon cancer cells
- Knock-down reagent: siRNA pool against human genes, 50 nM
- Measured: 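Log2 levels of six mRNAs (branched-DNA multiplex), adjusted by two reference genes and the non-targeting median, then scored against the average KSR1 knockdown pattern as Pearson r and euclidean distance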
- Reading the numbers: mean correlation with KSR1 profile: higher = expression change more like KSR1 knockdown; mean distance from KSR1 profile: higher = expression change less like KSR1 knockdown
In all, the deposit lists about 14,000 reagents; shown is a random part of them. 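Higher correlation or smaller distance means closer resemblance to KSR1 loss; control wells, including KSR1 knockdowns, recur on many plates.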 Some reagents were tested in more than one well and are listed for each. Further read-outs or replicates are left out here. The record does not give: the time to read-out.

ZNF8 | mean correlation with KSR1 profile = -0.301; mean distance from KSR1 profile = 2.03
ASTN1 | mean correlation with KSR1 profile = -0.0343; mean distance from KSR1 profile = 1.99
CLDN15 | mean correlation with KSR1 profile = -0.525; mean distance from KSR1 profile = 2.3
TM6SF1 | mean correlation with KSR1 profile = 0.0182; mean distance from KSR1 profile = 1.35
GALNT17 | mean correlation with KSR1 profile = -0.168; mean distance from KSR1 profile = 1.53
GJA4 | mean correlation with KSR1 profile = -0.427; mean distance from KSR1 profile = 3.18
INPP5E | mean correlation with KSR1 profile = 0.694; mean distance from KSR1 profile = 3.22
SNAP23 | mean correlation with KSR1 profile = -0.235; mean distance from KSR1 profile = 6.11
IGFBP4 | mean correlation with KSR1 profile = -0.278; mean distance from KSR1 profile = 1.75
CARF | mean correlation with KSR1 profile = 0.233; mean distance from KSR1 profile = 1.46
RHBDD2 | mean correlation with KSR1 profile = 0.377; mean distance from KSR1 profile = 2.04
RPL41 | mean correlation with KSR1 profile = -0.349; mean distance from KSR1 profile = 1.43
LAS1L | mean correlation with KSR1 profile = 0.206; mean distance from KSR1 profile = 2.6
MOBP | mean correlation with KSR1 profile = -0.3; mean distance from KSR1 profile = 1.8
SPAG16 | mean correlation with KSR1 profile = 0.00912; mean distance from KSR1 profile = 1.66
RAB2A | mean correlation with KSR1 profile = -0.281; mean distance from KSR1 profile = 2.59
POC1A | mean correlation with KSR1 profile = 0.413; mean distance from KSR1 profile = 0.962
GRK7 | mean correlation with KSR1 profile = 0.867; mean distance from KSR1 profile = 0.867
GRK7 | mean correlation with KSR1 profile = 0.2; mean distance from KSR1 profile = 1.78
EIF2S3 | mean correlation with KSR1 profile = -0.155; mean distance from KSR1 profile = 5.07
PGK1 | mean correlation with KSR1 profile = 0.294; mean distance from KSR1 profile = 1.24
LUZP4 | mean correlation with KSR1 profile = -0.555; mean distance from KSR1 profile = 4.07
ZNF576 | mean correlation with KSR1 profile = 0.508; mean distance from KSR1 profile = 1.89
BMP2 | mean correlation with KSR1 profile = 0.762; mean distance from KSR1 profile = 1.03
HTR2A | mean correlation with KSR1 profile = 0.388; mean distance from KSR1 profile = 2.63
ZNF146 | mean correlation with KSR1 profile = 0.418; mean distance from KSR1 profile = 1.23
ALG12 | mean correlation with KSR1 profile = -0.0571; mean distance from KSR1 profile = 1.77
OCA2 | mean correlation with KSR1 profile = -0.287; mean distance from KSR1 profile = 1.45

Copied from the list.
Entry of RPL41 in “mean distance from KSR1 profile”: 1.43
Under “mean correlation with KSR1 profile”, GALNT17 is entered as -0.168
POC1A, mean distance from KSR1 profile = 0.962
Result of GJA4 in “mean correlation with KSR1 profile”: -0.427
